Consider two sequences from publication PMC11591864.

Data set [1] addresses CadR (MerR family Cd2+ regulator, apo) (Rubrivivax gelatinosus) (UniProt I0HLS8). Nature of the data set: EMSA. The following applies: 1 mM EDTA, heparin, protein 0-16 µg/µL, 50 mM Tris-HCl pH 7.5, 50 mM potassium acetate (AcK), 20% glycerol, 0.5 µg heparin, 5% gel in 0.5x TBE pH 7.6 at 4 °C, recombinant protein, protein details: His6 (pET-28b NdeI-BamHI, N-terminal implied), label: Cy5 on forward strand. (In general: In EMSA bound probe runs differently from free probe, usually more slowly.)

The target of data set [2] is CopR (CueR-like MerR regulator, apo) (Rubrivivax gelatinosus) (UniProt L0EL98). Nature of the data set: EMSA. The settings on record: 1 mM EDTA, heparin, protein 0-16 µg/µL, 50 mM Tris-HCl pH 7.5, 50 mM potassium acetate (AcK), 20% glycerol, 0.5 µg heparin, 1 h room …, 5% gel in 0.5x TBE pH 7.6 at 4 °C, recombinant protein, protein details: His6 (pET-28b NdeI-BamHI, N-terminal implied), label: Cy5 on forward strand.

The exact form of at least one protein or probe is not confirmed. For some of these results: A weaker result is weaker than the reference pair of the same experiment.

With “CCTTTCGTGTCCGACGCTTGACTCTAAACCCGCTACAGGGTCTGCAATGGCGGC (double strand) [PcadA (54 nt)]”, the binding result in data set [1] (1 h room …) and in data set [2] was “binds” throughout.

With “TTCCGACAGCCCCGCGCTTGACCTTGCCATCGTGGCAAGGTCGACGATGGCTCCGGTCCACAATG (double strand) [PcopA (65 nt)]”, the binding result was “binds more weakly” in data set [1] (much lower affinity, 1 h room temperature) and “binds” in data set [2].
